# PubChem BioAssay AID602196, INSERM – 2012
# Aim: 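Genes whose knock-down alters cisplatin killing of lung cancer cells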
# System: human A549 lung cancer cells
# Knock-down reagent: siRNA pair against human genes
# Timing: 48 h transfection before cisplatin; time from cisplatin to read-out not stated
# Challenge: cisplatin at a dose killing half of control-siRNA cells; exact dose and duration not given
# Measured: 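Shift in cisplatin death relative to control siRNA, from -50 (all cells die) to +50 (no cells die); siRNAs harmful on their own scored 0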
# Direction: two-siRNA summed score (-2 to +2): higher = both siRNAs protect from cisplatin killing; -2 means both sensitise; mean protection from cisplatin (shift in death) and protection from cisplatin (shift in death), siRNA C and protection from cisplatin (shift in death), siRNA D: higher = protection from cisplatin killing
# Rule for the call: 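siRNAs harmful alone (LDH or WST-1) get 0; others get +1 for less and -1 for more cisplatin killing; genes are active when the two siRNAs give the same sign, summing to ±2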
# Calls: active = both siRNAs shift cisplatin killing the same way; inactive = no consistent shift, or siRNA harmful alone
# This is a random part of about 23,000 reagents. 455 of them (2%) were called active. 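Active includes both protection and sensitisation; some change values fall well beyond the stated -50 to +50 range.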 Not stated in the record: the amount of reagent.
gene symbol,two-siRNA summed score (-2 to +2),mean protection from cisplatin (shift in death) (%),"protection from cisplatin (shift in death), siRNA C (%)","protection from cisplatin (shift in death), siRNA D (%)",Call
IFT88,0,0.3,2,-1.5,inactive
MTFR1,1,8.4,-2.6,19.3,inactive
APIP,0,11.4,24.6,-1.9,inactive
SLC35G2,0,-0.2,5.4,-5.8,inactive
ACSM6,0,0.8,12,-10.4,inactive
ARX,1,25.7,33.4,18.1,inactive
ASB12,0,10.9,12.1,9.6,inactive
RCHY1,0,5.2,7.3,3.1,inactive
LINGO1,0,-10.5,-18.5,-2.5,inactive
LOC441953,0,16.9,-3.6,37.3,inactive
ABTB2,0,-1.6,-10.9,7.6,inactive
CSGALNACT1,0,8.3,18.7,-2,inactive
CCT8,-2,-17.6,-20,-15.2,active
LOC440364,1,7.3,13.7,0.9,inactive
EPB42,1,14.2,17.5,11,inactive
LOC389168,0,24.5,43.5,5.5,inactive
GPX5,-1,-7.2,10.2,-24.6,inactive
LOC283152,0,9.6,14.5,4.7,inactive
WNT2,0,0.9,-19.7,21.6,inactive
GLB1L,0,8,12,4,inactive
ZSCAN20,1,6.9,-3.3,17.2,inactive
FBLIM1,-1,-12,-26.6,2.7,inactive
KCNB1,-2,-19.6,-19.5,-19.6,active
EXPH5,0,0.7,-2.8,4.3,inactive
NT5E,1,15.9,22.4,9.3,inactive
LOC389240,0,1.8,-5.2,8.8,inactive
LOC285984,0,-0.3,3,-3.7,inactive
LOC222901,1,5.2,14,-3.6,inactive
SALL2,1,18.1,16.3,19.9,inactive
KRTAP4-5,0,3.2,-2.3,8.7,inactive
LRP3,0,8.9,3.9,13.9,inactive
MIR7-3HG,1,6.8,-2.1,15.7,inactive
WDR54,1,20.1,27.2,13.1,inactive
LOC440722,1,14.8,14.7,14.9,inactive
DIS3,0,9.1,14.1,4.1,inactive
CD2,-1,-21.8,-14.4,-29.2,inactive
CACNB2,0,-6.9,1,-14.9,inactive
ZNF20,1,12.9,12,13.7,inactive
LOC388595,0,-7.6,-7.7,-7.6,inactive
LOC440176,0,13.4,13.8,12.9,inactive
RXFP2,1,14.4,-3.2,32.1,inactive
STK16,1,2.3,-7.5,12,inactive
ANKRD33,0,12.6,14.8,10.5,inactive
CKMT2,1,7.5,-9.5,24.5,inactive
CRACD,0,8.6,13.7,3.5,inactive
CMPK2,1,15.2,16.4,14,inactive
MAGI3,-1,-5,1.8,-11.7,inactive
HSPA1L,1,3.2,-7.9,14.3,inactive
NT5C2,1,16.5,26.4,6.6,inactive
MRGPRX3,0,6.9,8.4,5.4,inactive
UBIAD1,0,8.6,7,10.3,inactive
SORCS2,-1,-9.7,-21,1.6,inactive
DNAL4,0,1.9,9.5,-5.7,inactive
NTM-AS1,0,1.5,-7.8,10.9,inactive
NINJ1,0,6.3,3.4,9.3,inactive
DDX55,0,4.2,3.3,5.1,inactive
INKA2,0,0.4,8.8,-8.1,inactive
